Laboratory results reported in PubChem BioAssay AID248 (DTP/NCI, 2004).
The list shows only some results of the screen, not a fair sample: it is rich in T/C values a quarter to a half above the control, in often repeated tests (any T/C) and in doses without a T/C. Other doses and runs of a compound stand elsewhere. T/C: endpoint of the treated group in % of that of the vehicle group. Some entries give survivors of the animals treated and no T/C: the source holds a T/C of zero for them, seemingly a mark for toxic or unscored doses. Some survivor counts are full or nearly so, which does not show that the dose was tolerated: the source hardly ever lists a survival T/C far under the control, and the zero likely stands for such cases as well. Counts of survivors are from the toxicity check (mostly the fifth day) where no day follows; animals may have died later. Schedule codes are those of the source, taken here to give the interval after Q, in days (D) or hours (H), and the number of doses after X. Signs of the kind (2×) say how often a value occurs here. Some entries were tested several times; their values stand side by side, smallest first. Some molecules as drawn cover several salts, stereoisomers or complexes of the source; a dose is that of the sample tested. Where survival is the endpoint, this PubChem deposit counts one and a half times the control or more as active, and values a quarter to a half above the control carry no call in these data; other NCI protocols may use other cut-offs. Some T/C values are followed by the survivors on the day toxicity was checked, most often the fifth; where none is given, no animal had died by that day.

System: L1210 leukemia ip in BDF1 mice, survival T/C
Assay: NCI In Vivo Anticancer Drug Screen. Data for tumor model L1210 Leukemia (intraperitoneal) in B6D2F1 (BDF1) mice
Settings: T/C endpoint: mean survival time, higher T/C = longer survival
[1] = dose: 50.0 mg/kg/injection, schedule: Q04DX003 (ip), vehicle: saline
[2] = dose: 100.0 mg/kg/injection, schedule: Q04DX003 (ip), vehicle: saline
[3] = dose: 200.0 mg/kg/injection, schedule: Q04DX003 (ip), vehicle: Klucel (hydroxypropylcellulose) (HPC)
[4] = dose: 200.0 mg/kg/injection, schedule: Q04DX003 (ip), vehicle: saline
[5] = dose: 200.0 mg/kg/injection, schedule: Q04DX003 (ip), vehicle: saline with Tween-80
[6] = dose: 400.0 mg/kg/injection, schedule: Q04DX003 (ip), vehicle: saline with Tween-80
[7] = dose: 400.0 mg/kg/injection, schedule: Q04DX003 (ip), vehicle: Klucel (hydroxypropylcellulose) (HPC)
[8] = dose: 400.0 mg/kg/injection, schedule: Q04DX003 (ip), vehicle: saline
[9] = dose: 200.0 mg/kg/injection, schedule: Q04DX002 (ip), vehicle: saline with Tween-80
[10] = dose: 400.0 mg/kg/injection, schedule: Q04DX002 (ip), vehicle: saline with Tween-80
[11] = dose: 400.0 mg/kg/injection, schedule: Q01DX001 (ip), vehicle: saline
[12] = dose: 100.0 mg/kg/injection, schedule: Q01DX009 (ip), vehicle: saline with Tween-80
[13] = dose: 200.0 mg/kg/injection, schedule: Q01DX009 (ip), vehicle: saline with Tween-80

For `COC1OC(CO)C(O)C(NC(=O)N(C)N=O)C1O` (stereo unspecified), the T/C (dose: 25.0 mg/kg/injection, schedule: Q01DX009 (ip), vehicle: saline) was 125 % of control, the survivor count (dose: 25.0 mg/kg/injection, schedule: Q04DX003 (ip), vehicle: saline) was 6 of 6 and the T/C (dose: 50.0 mg/kg/injection, schedule: Q01DX009 (ip), vehicle: saline, evaluated on day 30) was 132 and 137 % of control. The T/C (dose: 50.0 mg/kg/injection, schedule: Q01DX009 (ip), vehicle: saline, evaluated on day 60) was 140 % of control, the T/C [1] was 127 % of control and the survivor count [1] was 6 of 6. For the same compound, the T/C (dose: 65.0 mg/kg/injection, schedule: Q01DX009 (ip), vehicle: saline) was 137 % of control, the T/C (dose: 66.0 mg/kg/injection, schedule: Q01DX009 (ip), vehicle: saline, evaluated on day 30) was 126 % of control and the T/C (dose: 66.0 mg/kg/injection, schedule: Q01DX009 (ip), vehicle: saline, evaluated on day 60) was 137 % of control. For the same compound, the T/C (dose: 100.0 mg/kg/injection, schedule: Q01DX009 (ip), vehicle: saline, evaluated on day 30) was 131, 143, 159 % of control, the T/C (dose: 100.0 mg/kg/injection, schedule: Q01DX009 (ip), vehicle: saline, evaluated on day 60) was 145 and 165 % of control and the T/C (dose: 100.0 mg/kg/injection, schedule: Q04DX003 (ip), vehicle: saline, evaluated on day 30) was 130 [5 of 6 alive] and 142 % of control. The T/C (dose: 100.0 mg/kg/injection, schedule: Q04DX003 (ip), vehicle: saline, evaluated on day 60) was 135 % of control, the survivor count [2] was 6 of 6 and the T/C (dose: 150.0 mg/kg/injection, schedule: Q01DX009 (ip), vehicle: saline) was 136 % of control. The T/C [3] was 133 % of control, the T/C [4] was 133 and 140 % of control and the survivor count [4] was 6 of 6.

In the case of `CCCCN(CCCC)CC(C)O` (stereo unspecified), the survivor count [5] was 0 of 6 and the survivor count [6] was 0 of 6.

In the case of `CCN=C1N[N+]2=CCCCC2S1` (stereo unspecified), the T/C [4] was 127 % of control.

With `C[CH2][Pb]([CH2]C)([CH2]C)[N]1C(=O)c2c(Cl)c(Cl)c(Cl)c(Cl)c2C1=O` the survivor count (dose: 25.0 mg/kg/injection, schedule: Q04DX002 (ip), vehicle: Klucel (hydroxypropylcellulose) (HPC)) was 2 of 3, the survivor count (dose: 50.0 mg/kg/injection, schedule: Q04DX002 (ip), vehicle: Klucel (hydroxypropylcellulose) (HPC)) was 0 of 3 and the survivor count (dose: 100.0 mg/kg/injection, schedule: Q04DX002 (ip), vehicle: Klucel (hydroxypropylcellulose) (HPC)) was 0 of 3. For the same compound, the survivor count (dose: 200.0 mg/kg/injection, schedule: Q04DX002 (ip), vehicle: Klucel (hydroxypropylcellulose) (HPC)) was 0 of 3 and the survivor count (dose: 400.0 mg/kg/injection, schedule: Q04DX002 (ip), vehicle: Klucel (hydroxypropylcellulose) (HPC)) was 0 of 3.

`O=C(O)c1cnc(Cl)nc1Nc1ccccc1I` was tested, and the survivor count (dose: 25.0 mg/kg/injection, schedule: Q01DX009 (ip), vehicle: saline with Tween-80) was 6 of 6 and the survivor count (dose: 50.0 mg/kg/injection, schedule: Q01DX001 (ip), vehicle: saline with Tween-80) was 6 of 6.

With `CC1CCN1Cc1ccccc1` (stereo unspecified) the survivor count (dose: 100.0 mg/kg/injection, schedule: Q04DX003 (ip), vehicle: acetone) was 6 of 6, the survivor count (dose: 115.0 mg/kg/injection, schedule: Q01DX009 (ip), vehicle: saline) was 3 of 6 and the survivor count (dose: 170.0 mg/kg/injection, schedule: Q01DX009 (ip), vehicle: saline) was 0 of 6. The survivor count (dose: 200.0 mg/kg/injection, schedule: Q04DX003 (ip), vehicle: acetone) was 0 of 6 and the survivor count (dose: 400.0 mg/kg/injection, schedule: Q04DX003 (ip), vehicle: acetone) was 0 of 6.

`CC(CN(C)C)C(=O)c1ccccc1` (stereo unspecified) was tested, and the survivor count [3] was 3 of 6, the survivor count [4] was 2 of 6 and the survivor count [7] was 0 of 6. The survivor count [8] was 0 of 6.

With `Cc1ccc(S(=O)(=O)Cl)cc1C(=O)O` the survivor count (dose: 100.0 mg/kg/injection, schedule: Q01DX001 (ip), vehicle: saline with Tween-80) was 4 of 6, the survivor count (dose: 200.0 mg/kg/injection, schedule: Q01DX001 (ip), vehicle: saline with Tween-80) was 0 of 6 and the survivor count [9] was 0 of 6 and 1 of 3. For the same compound, the survivor count [10] was 0 of 6.

`O=C(O)c1cccc(CCl)c1` was tested, and the survivor count [9] was 3 of 3 and the survivor count [10] was 1 of 3.

For `COc1ccccc1[As](=O)(O)CC(O)COc1ccc(Cl)cc1Cl` (stereo unspecified), the survivor count (dose: 25.0 mg/kg/injection, schedule: Q04DX003 (ip), vehicle: saline with Tween-80) was 6 of 6, the survivor count (dose: 50.0 mg/kg/injection, schedule: Q04DX003 (ip), vehicle: saline with Tween-80) was 5 of 6 and the survivor count (dose: 100.0 mg/kg/injection, schedule: Q04DX003 (ip), vehicle: saline with Tween-80) was 0 of 6 (2×). The survivor count [5] was 0 of 6 and the survivor count [6] was 0 of 6.

In the case of `CC1(C#N)CC(C#N)Nc2ccccc2N1` (stereo unspecified), the survivor count (dose: 400.0 mg/kg/injection, schedule: Q01DX009 (ip), vehicle: saline) was 3 of 6.

`CCOP(=O)(OCC)Oc1ccc(Sc2ccc(OP(=O)(OCC)OCC)cc2)cc1` was tested, and the survivor count (dose: 200.0 mg/kg/injection, schedule: Q01DX001 (ip), vehicle: saline) was 3 of 6 and the survivor count [11] was 0 of 6.

With `O=S(=O)(O)O.[N-]=C(N)/N=C(\[NH-])N.[N-]=C(N)/N=C(\[NH-])N.[N-]=C(N)NC(=[N-])N.[Rh+3]` the survivor count (dose: 100.0 mg/kg/injection, schedule: Q01DX009 (ip), vehicle: saline) was 0 of 6.

With `CCN(CC)CCCOC(=O)C(CCC(C)C)c1ccccc1C` (stereo unspecified) the survivor count [2] was 3 of 6, the survivor count [4] was 0 of 6 and the survivor count [8] was 0 of 6.

`Cc1cc2c(N)[nH]c(=O)nc2s1` was tested, and the survivor count (dose: 400.0 mg/kg/injection, schedule: Q04DX003 (ip), vehicle: water) was 2 of 6.

With `[N-]=[N+]=NC1=NN2NNN=C2C(N)=C1` the survivor count [11] was 2 of 4.

In the case of `Clc1ccc(C=NCCN=Cc2ccc(Cl)c(Cl)c2)cc1Cl`, the survivor count [12] was 6 of 6.

`CCCCCCCC[Se](=O)O` was tested, and the survivor count (dose: 40.0 mg/kg/injection, schedule: Q01DX001 (ip), vehicle: carboxymethylcellulose (CMC)) was 0 of 4, the survivor count (dose: 50.0 mg/kg/injection, schedule: Q01DX001 (ip), vehicle: carboxymethylcellulose (CMC)) was 0 of 4 and the survivor count (dose: 80.0 mg/kg/injection, schedule: Q01DX001 (ip), vehicle: carboxymethylcellulose (CMC)) was 0 of 4. For the same compound, the survivor count (dose: 100.0 mg/kg/injection, schedule: Q01DX001 (ip), vehicle: carboxymethylcellulose (CMC)) was 0 of 4, the survivor count (dose: 200.0 mg/kg/injection, schedule: Q01DX001 (ip), vehicle: carboxymethylcellulose (CMC)) was 0 of 4 and the survivor count (dose: 400.0 mg/kg/injection, schedule: Q01DX001 (ip), vehicle: carboxymethylcellulose (CMC)) was 0 of 4.

With `O=C1C=CC(=NBr)C=C1` the survivor count (dose: 50.0 mg/kg/injection, schedule: Q01DX009 (ip), vehicle: Klucel (hydroxypropylcellulose) (HPC)) was 3 of 3, the survivor count (dose: 100.0 mg/kg/injection, schedule: Q01DX009 (ip), vehicle: Klucel (hydroxypropylcellulose) (HPC)) was 0 of 3 and the survivor count (dose: 200.0 mg/kg/injection, schedule: Q01DX009 (ip), vehicle: Klucel (hydroxypropylcellulose) (HPC)) was 0 of 3.

With `C=CCc1ccc(OC(=O)Nc2ccc(SC)cc2)c(OC)c1` the T/C [12] was 90 (2×), 96, 97 % of control, the T/C [13] was 86, 97, 98 % of control and the survivor count [13] was 6 of 6.

`COc1ccc2c(O)c(Oc3ccccc3)c(=O)oc2c1` was tested, and the survivor count [8] was 1 of 3.

In the case of `COC(=O)c1cncn1C(C)c1cccc2ccccc12` (stereo unspecified), the survivor count [3] was 3 of 6 and the survivor count [7] was 1 of 6.

`CN(C)C(=S)Sc1ccc([N+](=O)[O-])cc1[N+](=O)[O-]` was tested, and the survivor count (dose: 100.0 mg/kg/injection, schedule: Q04DX003 (ip), vehicle: Klucel (hydroxypropylcellulose) (HPC)) was 6 of 6, the survivor count [3] was 6 of 6 and the survivor count (dose: 400.0 mg/kg/injection, schedule: Q01DX009 (ip), vehicle: Klucel (hydroxypropylcellulose) (HPC)) was 6 of 6.
